Measurements reported in US10195311B2, “Local delivery of drugs from self assembled coatings” (Interface Biologics, Inc., priority 2009, dated 2019).
At least one compound was matched to its structure with a doubt left.

Assay: Oligofluoro as solubilizing agent, drug release from coated nylon films in water
Format: physicochemical
Conditions: drug at 4 wt %, nylon film, water 24 hours

CO[C@H]1C[C@@H]2CC[C@@H](C)[C@@](O)(O2)C(=O)C(=O)N2CCCC[C@H]2C(=O)O[C@H]([C@H](C)C[C@@H]2CC[C@@H](O)[C@H](OC)C2)CC(=O)[C@H](C)/C=C(\C)[C@@H](O)[C@@H](OC)C(=O)[C@H](C)C[C@H](C)/C=C/C=C/C=C/1C [rapamycin control, rapamycin]
Percentage drug released in water: 4%
